Data as given in PubChem BioAssay AID743121 (NCATS, 2013)
Aim: 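Genes whose silencing strengthens cell killing by camptothecin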 (primary screen). System: MDA-MB-231 cells, a human breast cancer line. Reagent: single siRNA against human genes, 20 nM siRNA (0.8 pmol per well). Time to read-out: 120 h (drug added 48 h after transfection, read 72 h later). Treatment: camptothecin 20 nM (about EC30) for 72 h; vehicle 0.1% DMSO in parallel plates. Read-out: 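Cell viability by ATP luminescence (CellTiter-Glo) as % of non-targeting siRNA wells, and the log2 ratio of viability without drug over viability with camptothecin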. Scale: log2 vehicle/camptothecin viability: higher = stronger sensitisation to camptothecin; viability with camptothecin and viability without drug: higher = more viable cells. Call rule: 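Each gene scored by redundant siRNA activity (RSA) over its individual siRNA ratios; a gene is called active at p < 0.001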.
The whole screen tested about 26,000 reagents; this is an unselected part. 167 of all reagents (0.63%) were called active. 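Calls are per gene from RSA p-values that are not deposited; an individual active-marked siRNA can sensitise only weakly.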 No sequences are given here.

Gene	PubChem SID	log2 vehicle/camptothecin viability	viability with camptothecin (% of control)	viability without drug (% of control)	Outcome
USP8 (ubiquitin specific peptidase 8)	SID164401722	0.114	60.9	66	inactive
USP8 (ubiquitin specific peptidase 8)	SID164401723	-0.227	35.5	30.3	inactive
USP8 (ubiquitin specific peptidase 8)	SID164401726	0.17	89	100	inactive
PROSER1 (proline and serine rich 1)	SID164535573	-0.283	81.2	66.7	inactive
PROSER1 (proline and serine rich 1)	SID164535574	-0.066	77.7	74.2	inactive
PROSER1 (proline and serine rich 1)	SID164535576	-0.173	95.1	84.4	inactive
PROSER1 (proline and serine rich 1)	SID164535577	-0.222	69.8	59.9	inactive
MAX (MYC associated transcriptional regulator X)	SID164374904	-0.245	108	91.5	inactive
MAX (MYC associated transcriptional regulator X)	SID164374908	-0.714	73.3	44.7	inactive
MAX (MYC associated transcriptional regulator X)	SID164374909	-0.063	47.2	45.2	inactive
MAX (MYC associated transcriptional regulator X)	SID164374913	-0.488	85.5	61	inactive
MAX (MYC associated transcriptional regulator X)	SID164374914	-0.434	100	74.4	inactive
MAX (MYC associated transcriptional regulator X)	SID164374915	-0.408	98.5	74.3	inactive
MAX (MYC associated transcriptional regulator X)	SID164374917	-0.557	82.4	56	inactive
MAX (MYC associated transcriptional regulator X)	SID164374918	0.156	101	112	inactive
IFNA1 (interferon alpha 1)	SID164370786	-0.079	90.1	85.3	inactive
IFNA1 (interferon alpha 1)	SID164370787	0.132	76.6	83.9	inactive
IFNA1 (interferon alpha 1)	SID164370789	-0.0856	96	90.5	inactive
IFNA1 (interferon alpha 1)	SID164370790	-0.275	109	90.2	inactive
IFNA1 (interferon alpha 1)	SID164370849	-0.166	77.4	69	inactive
IFNA1 (interferon alpha 1)	SID164370851	-0.199	88.1	76.8	inactive
TPCN2 (two pore segment channel 2)	SID164591846	-0.151	101	91.3	inactive
TPCN2 (two pore segment channel 2)	SID164591849	0.143	76.1	84	inactive
TPCN2 (two pore segment channel 2)	SID164591854	0.0626	121	126	inactive
EHMT1 (euchromatic histone lysine methyltransferase 1)	SID164533482	-0.0476	40.7	39.4	inactive
EHMT1 (euchromatic histone lysine methyltransferase 1)	SID164533486	-0.0314	95.3	93.2	inactive
EHMT1 (euchromatic histone lysine methyltransferase 1)	SID164533488	-0.208	103	89.4	inactive
EHMT1 (euchromatic histone lysine methyltransferase 1)	SID164533489	-0.106	95.6	88.8	inactive
